Assay results taken from PMC5392680.

Biological target: T1, FLAG-cyclin F (pCMV-FLAG-cyclin F) (human) (UniProt P41002)
T1 sequence: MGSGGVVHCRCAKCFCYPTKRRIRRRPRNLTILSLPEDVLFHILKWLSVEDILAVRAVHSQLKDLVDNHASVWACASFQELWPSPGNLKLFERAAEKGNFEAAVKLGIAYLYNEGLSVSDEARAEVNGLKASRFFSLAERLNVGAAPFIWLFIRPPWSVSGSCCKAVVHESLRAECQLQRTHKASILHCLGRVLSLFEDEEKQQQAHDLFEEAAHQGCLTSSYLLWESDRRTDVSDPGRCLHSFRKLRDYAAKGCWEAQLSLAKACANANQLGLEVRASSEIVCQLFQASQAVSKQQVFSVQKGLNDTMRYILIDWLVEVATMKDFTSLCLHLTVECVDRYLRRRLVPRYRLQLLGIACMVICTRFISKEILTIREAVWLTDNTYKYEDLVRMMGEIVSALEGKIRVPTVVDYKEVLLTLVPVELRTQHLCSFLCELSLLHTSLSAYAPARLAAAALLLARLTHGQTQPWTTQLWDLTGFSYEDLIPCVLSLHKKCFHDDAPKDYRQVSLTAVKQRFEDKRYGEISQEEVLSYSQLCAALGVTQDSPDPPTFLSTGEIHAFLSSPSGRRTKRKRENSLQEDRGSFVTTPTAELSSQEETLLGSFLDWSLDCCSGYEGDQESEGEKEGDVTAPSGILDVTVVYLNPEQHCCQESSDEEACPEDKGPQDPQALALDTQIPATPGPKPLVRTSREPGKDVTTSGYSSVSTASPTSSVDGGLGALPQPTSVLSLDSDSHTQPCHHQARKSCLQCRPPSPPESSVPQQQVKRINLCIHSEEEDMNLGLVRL
Assay: co-IP; HEK293T cells co-transfected with cyclin F and wild-type or CY Mut Vif constructs, lysates 48 h post-transfection; IP with cyclin F or Vif antibody, protein A- and G-agarose beads, immunoblot

## myc-Vif (RKL/AAA) point mutant, CY Mut Vif (HIV-1 NL4-3)
  binding: no binding

These are yes or no findings as the source states them, for the method shown. Binding seen in cells or lysates may run through a third protein. Tags and fused reporters may be left off the sequences shown.
